Reference: article PMC5118774 (Frontiers in Pharmacology, 2016)

What was measured:
[1] = test system: mice exposed to unpredictable chronic mild stress (UCMS); assay: Open field test after UCMS; type: in vivo, C57BL/6J mice; settings: female and male UCMS mice, 30 mg/kg i.p., control measure (Figure S1C)
[2] = test system: mice exposed to unpredictable chronic mild stress (UCMS); assay: Novelty suppressed feeding test after UCMS; type: in vivo, C57BL/6J mice; settings: female and male UCMS mice, 30 mg/kg i.p.
Text: Mice underwent between 6 and 8 weeks of UCMS (see Supplementary Table S1 for example UCMS schedule). Animals were exposed to 2–3 mild stressors each day throughout the light/dark cycle, including wet bedding, brief restraint, forced bath, no bedding, reduced space, and predator odor over a period of several weeks (see details in Supplementary Material) ([Edgar et al., 2011]; [Lin and Sibille, 2015]). Female mice were housed 5 per cage, and male mice were housed 4 per cage in Optimice cages (Animal Care Systems Inc, Centennial, CO, USA). In experiment 3.4, UCMS was augmented with single-cage isolation housing in male mice beginning at the fourth week of UCMS until sacrifice. […]
After 5 weeks of UCMS, including 3 weeks of drug treatment, animals were assessed in a battery of behavioral tests (each test separated by 48 h, UCMS continued throughout behavioral testing for a period of 1–3 weeks). […] Number of entries into all arms as well as the time spent in the open arms was recorded for 10 min. […] A normal food pellet was placed into the brightly lit center and the latency for an animal to approach and bite the pellet was recorded over a 12 min session. […] Mice were then placed into the opposing chamber separated by the white divider and monitored for 10 min. The latency for each mouse to bite the cookie was recorded. […]

In the case of `C#Cc1ccc2c(c1)C(c1ccccc1F)=N[C@H](C)c1c(C(=O)OCC)ncn1-2` [α5-PAM], the “locomotion (total distance traveled) in the OFT” value [1] is reported as “no main effect of treatment”, the “percentage of weight lost after 24 h food deprivation prior to the NSF” value ([2]; control measure (Figure S1A)) is reported as “No effect” and the “amount of normal chow consumed in the home cage after the NSF” value ([2]; control measure (Figure S1B)) is reported as “no effect of treatment”.
